In publication PMC8113569:
No constants are given. Whether binding was seen depends on the method and setting. Binding seen in cells or lysates may run through a third protein. Some binding calls cover weakened binding; strength is not graded here.

Target: T1, IRF3, endogenous mouse (mouse (endogenous in BMDC)) (UniProt P70671)
T1 sequence: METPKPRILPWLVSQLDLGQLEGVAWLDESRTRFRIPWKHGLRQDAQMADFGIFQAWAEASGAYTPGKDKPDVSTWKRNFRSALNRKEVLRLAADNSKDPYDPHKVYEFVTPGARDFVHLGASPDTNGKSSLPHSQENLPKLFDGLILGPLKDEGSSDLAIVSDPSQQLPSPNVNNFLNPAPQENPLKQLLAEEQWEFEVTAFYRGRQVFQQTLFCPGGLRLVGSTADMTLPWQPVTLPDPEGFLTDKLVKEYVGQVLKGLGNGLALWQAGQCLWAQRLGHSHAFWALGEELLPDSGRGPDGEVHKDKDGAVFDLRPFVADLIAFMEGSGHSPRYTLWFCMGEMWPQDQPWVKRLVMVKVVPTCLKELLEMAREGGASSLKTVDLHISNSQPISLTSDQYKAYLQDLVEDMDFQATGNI
Assay: co-IP

B1: mitochondrial antiviral-signaling protein (MAVS), endogenous mouse (protein, UniProt Q8VCF0 1-503)
chain: MTFAEDKTYKYIRDNHSKFCCVDVLEILPYLSCLTASDQDRLRASYRQIGNRDTLWGLFNNLQRRPGWVEVFIRALQICELPGLADQVTRVYQSYLPPGTSLRSLEPLQLPDFPAAVSGPSAFAPGHNIPDHGLRETPSCPKPVQDTQPPESPVENSEQLLQTNSGAVARMSGGSLIPSPNQQALSPQPSREHQEQEPELGGAHAANVASVPIATYGPVSPTVSFQPLPRTALRTNLLSGVTVSALSADTSLSSSSTGSAFAKGAGDQAKAATCFSTTLTNSVTTSSVPSPRLVPVKTMSSKLPLSSKSTAAMTSTVLTNTAPSKLPSNSVYAGTVPSRVPASVAKAPANTIPPERNSKQAKETPEGPATKVTTGGNQTGPNSSIRSLHSGPEMSKPGVLVSQLDEPFSACSVDLAISPSSSLVSEPNHGPEENEYSSFRIQVDESPSADLLGSPEPLATQQPQEEEEHCASSMPWAKWLGATSALLAVFLAVMLYRSRRLAQ
B1 was tested, and the binding was “binds”.
